Test results: patent US20230295227A1, “COMPOUNDS FOR USE IN DIAGNOSIS AND/OR MONITORING OF FIBROSIS” (ANTAROS TRACER AB, priority 2020, published 2023)
At least one peptide structure holds a part that was inferred or is arguable (an end, a ring closure or a residue). Peptide text beside a SMILES is read from it. * marks the point of attachment. DOTA = O=C(O)CN1CCN(CC(=O)O)CCN(CC(=O)*)CCN(CC(=O)O)CC1; AEEA = NCCOCCOCC(=O)O

Columns and labels:
[1] = Stability testing of peptides at pH 4.5 (sodium acetate buffer), HPLC Method B; type: physicochemical
Description: (§1) Analytical high performance liquid chromatography (HPLC) was performed on a Dionex UltiMate 3000 HPLC system with a Bruker amazon SL ion trap mass spectrometer and detection by UV (diode array detector, 214, 254, and 280 nm) and electrospray ionization (ESI) MS using a Penomenex Kinetex C18 column (50×3.0 mm, 2.6 μm particle size, 100 Åpore size) and a Penomenex Kinetex Biphenyl column (50×4.6 mm, 2.6 μm particle size, 100 Åpore size). A gradient of H2O/CH3CN/0.05% HCOOH was used at a flow rate of 1.5 mL/min.
Method B: Detection at 214 nm
For the peptides stored in sodium acetate buffer (pH 4.5, 100 mM) the solutions were analyzed by HPLC (analytical HPLC Method B) after 0 h, and 1 day incubation at 4° C. and 23° C.
(§2) The “% Purity” at each time point is defined by the % Relative purity at time point “n” (n=1 day, 7 days, 14 days in pH 7.4 PBS and 1 day at pH 4.5 NaAc) in relation to the % Relative purity at t0 following the equation:
% Purity at tn=[(% Relative purity tn)×100)]/% Relative purity t0
Samples were incubated for 1 day at 23° C. and 4° C. and were analyzed using HPLC Method B.

[2] = Stability testing of peptides at pH 7.4 (PBS), HPLC Method B; type: physicochemical
Description: as §1
Method B: Detection at 214 nm column: Penomenex Kinetex Biphenyl column (50×4.6 mm, 2.6 μm particle size, 100 Åpore size) solvent: H2O+0.05% HCOOH: CH3CN+0.05% HCOOH (flow 1.5 ml/min) […]
(§3) For stability testing, 500 μmol pure compound was dissolved in 1 mL PBS buffer (pH 7.4), or 1 mL sodium acetate buffer (pH 4.5, 100 mM). For the peptides stored in PBS, the solutions were stored for 14 days at 4° C. and 23° C. At 0 h, 1 day, 7 days and 14 days, the solutions were analyzed by HPLC (analytical HPLC Method A and Method B).
as §2
(§4) % Purity at tn=[(% Relative purity tn)×100)]/% Relative purity t0 […]
Samples were incubated up to 14 days at 23° C. and 4° C. and were analyzed using HPLC Method B.

[3] = Stability testing of peptides at pH 7.4 (PBS), HPLC Method A; type: physicochemical
Description: as §1
Method A: Detection at 214 nm column: Penomenex Kinetex C18 (50×3.0 mm, 2.6 μm particle size, 100 Åpore size) solvent: H2O+0.05% HCOOH: CH3CN+0.05% HCOOH (flow 1.5 ml/min) […]
as §3, §2, §4
Samples were incubated up to 14 days at 23° C. and 4° C. and were analyzed using HPLC Method A.

[4] = Extrapolation of the predicted human dosimetry from rat biodistribution data
[5] = test system: frozen sections of fibrotic mice liver; experiment: In vitro autoradiography binding assay on tissue sections; design: species or system mice (female, Balb/c)

| SMILES | % Purity after 1 day ([1]; 4° C.) [%] | % Purity after 1 day ([1]; 23° C.) [%] | % Purity after 1 day ([2]; 4° C.) [%] | % Purity after 7 days ([2]; 4° C.) [%] | % Purity after 14 days ([2]; 4° C.) [%] | % Purity after 1 day ([2]; 23° C.) [%] | % Purity after 7 days ([2]; 23° C.) [%] | % Purity after 14 days ([2]; 23° C.) [%] | % Purity after 1 day ([3]; 4° C.) [%] | % Purity after 7 days ([3]; 4° C.) [%] | % Purity after 14 days ([3]; 4° C.) [%] | % Purity after 1 day ([3]; 23° C.) [%] | % Purity after 7 days ([3]; 23° C.) [%] | % Purity after 14 days ([3]; 23° C.) [%] | further results |
| --- | --- | --- | --- | --- | --- | --- | --- | --- | --- | --- | --- | --- | --- | --- | --- |
| CC(C)C[C@H](NC(=O)COCCOCCNC(=O)CN1CCN(CC(=O)O)CCN(CC(=O)O)CCN(CC(=O)O)CC1)C(=O)N[C@@H](CCCNC(=N)N)C(=O)N[C@@H](CCC(=O)O)C(=O)N[C@@H](CC(C)C)C(=O)N[C@@H](Cc1c[nH]cn1)C(=O)N[C@@H](CC(C)C)C(=O)N[C@@H](CC(N)=O)C(=O)N[C@@H](C)C(=O)N[C@@H](CC(N)=O)C(=O)O [Compound 2, DOTA-NH—(CH2CH2O)2—CH2—C(O)-L-R-E-L-H-L-N-A-N—OH] ({DOTA-AEEA}-LRELHLNAN-OH) | >99 | >99 | 100 | >98 | >99 | 100 | >99 | >98 | >99 | >99 | >99 | >98 | >98 | >97 |  |
| CC(C)C[C@H](NC(=O)COCCOCCNC(=O)CN1CCN(CC(=O)O)CCN(CC(=O)O)CCN(CC(=O)O)CC1)C(=O)N[C@@H](CCCNC(=N)N)C(=O)N[C@@H](CCC(=O)O)C(=O)N[C@@H](CC(C)C)C(=O)N[C@@H](Cc1c[nH]cn1)C(=O)N[C@@H](CC(C)C)C(=O)N[C@@H](CC(N)=O)C(=O)N[C@@H](CC(N)=O)C(=O)N[C@@H](CC(N)=O)C(N)=O [Compound 3, DOTA-NH—(CH2CH2O)2—CH2—C(O)-L-R-E-L-H-L-N—N—N—NH2] | >99 | >99 | >99 | >98 | >96 | >99 | >98 | >98 | 100 | >99 | >98 | >97 | >97 | >96 |  |
| CC(C)C[C@H](NC(=O)COCCOCCNC(=O)CN1CCN(CC(=O)O)CCN(CC(=O)O)CCN(CC(=O)O)CC1)C(=O)N[C@@H](CCCNC(=N)N)C(=O)N[C@@H](CCC(=O)O)C(=O)N[C@@H](CC(C)C)C(=O)N[C@@H](Cc1c[nH]cn1)C(=O)N[C@@H](CC(C)C)C(=O)N[C@@H](CC(N)=O)C(=O)N[C@@H](C)C(=O)N[C@@H](CC(N)=O)C(N)=O [Compound 5, DOTA-NH—(CH2CH2O)2—CH2—C(O)-L-R-E-L-H-L-N-A-N—NH2] ({DOTA-AEEA}-LRELHLNAN-NH2) | >99 | >99 | >99 | >99 | >98 | 100 | >99 | >98 | >99 | >99 | >98 | >98 | >97 | >96 |  |
| CC(C)C[C@H](NC(=O)COCCOCCNC(=O)CN1CCN(CC(=O)O)CCN(CC(=O)O)CCN(CC(=O)O)CC1)C(=O)N[C@@H](CCCNC(=N)N)C(=O)N[C@@H](CCC(=O)O)C(=O)N[C@@H](CC(C)C)C(=O)N[C@@H](Cc1c[nH]cn1)C(=O)N[C@@H](CC(C)C)C(=O)N[C@@H](CC(N)=O)C(=O)N[C@@H](CC(N)=O)C(=O)N[C@@H](CC(N)=O)C(=O)O [[^68Ga]Ga-1, [^68Ga]Ga-DOTA-NH—(CH2CH2O)2—CH2—C(O)-LRELHLNNN—OH, metal not drawn] |  |  |  |  |  |  |  |  |  |  |  |  |  |  | total effective dose ([4]; predicted human dose, OLINDA/EXM 1.1): 13 μSv/MBq; organ absorbed dose, red bone marrow (critical organ) ([4]; predicted human dose, male phantoms, OLINDA/EXM 1.1): 0.033 mSv/MBq; activity that the effective dose allows to administer to humans annually ([4]; predicted, humans, annually): up to 770 MBq; binding to healthy liver tissue controls ([5]; 200 nM tracer, 40 minutes at RT, n=2): 2-22 fmol/mm^3; binding to grade 0-3 fibrotic liver tissue ([5]; 200 nM tracer, 40 minutes at RT, n=10): 1-80 fmol/mm^3; uptake in presence of 60 μM unconjugated LRELHLNNN peptide ([5]; frozen sections of fibrotic mice liver): inhibited; blocking effect of 60 μM unconjugated LRELHLNNN peptide ([5]; healthy controls without fibrosis): No detectable blocking effect |
